In patent publication US20050158834:
Substitutions are numbered along the chain they refer to. Construct, isoform or probe ends are uncertain for at least one entry. Where a protein sequence is shown, tags need not be part of it.

Tests used:
Experiment in all cases: enzyme reaction in vitro
[1] = test system: T1, Nb.SapI (variant 33 + D34Y/I82V/P168L/R420I) (Saccharopolyspora sp.); settings: bottom-strand nicking between 4th and 5th nt downstream of site; NEB buffer 4, 37 C, 60 min; value is titer of purified lot; purified recombinant protein; only the site is given
T1 sequence: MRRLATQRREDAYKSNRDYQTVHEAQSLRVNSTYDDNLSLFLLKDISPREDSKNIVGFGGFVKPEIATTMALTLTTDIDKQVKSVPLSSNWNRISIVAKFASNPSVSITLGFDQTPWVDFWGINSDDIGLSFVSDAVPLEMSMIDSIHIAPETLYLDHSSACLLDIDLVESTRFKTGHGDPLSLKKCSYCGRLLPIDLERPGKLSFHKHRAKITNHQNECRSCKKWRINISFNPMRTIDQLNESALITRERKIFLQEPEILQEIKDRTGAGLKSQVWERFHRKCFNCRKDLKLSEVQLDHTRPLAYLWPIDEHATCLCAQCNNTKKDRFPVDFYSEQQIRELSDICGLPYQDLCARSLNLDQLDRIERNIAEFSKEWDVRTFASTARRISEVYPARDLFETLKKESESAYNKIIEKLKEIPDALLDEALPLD

[2] = test system: T2, Nt.SapI (E250K) (Saccharopolyspora sp.); settings: top-strand nicking between 1st and 2nd nt downstream of site; NEB buffer 4, 37 C; most active top-strand variant; value is production level; protein in a lysate after overexpression; only the site is given
T2 sequence: T1 sequence with Y34D, V82I, L168P, E250K, I420R

[3] = test system: T3, Nt.SapI (G271R) (Saccharopolyspora sp.); settings: exclusive top-strand nicking; protein in a lysate after overexpression; only the site is given
T3 sequence: T1 sequence with Y34D, V82I, L168P, I230N, G271R, I420R

[4] = test system: T4, Nt.SapI (K273R) (Saccharopolyspora sp.); settings: exclusively top-strand nicked product; NEB buffer 4, 37 C; protein in a lysate after overexpression; only the site is given
T4 sequence: T1 sequence with Y34D, V82I, L168P, I230N, K273R, I420R

[5] = test system: T5, Nt.SapI (Q240R) (Saccharopolyspora sp.); settings: exclusive top-strand nicking; protein in a lysate after overexpression; only the site is given
T5 sequence: T1 sequence with Y34D, V82I, L168P, I230N, Q240R, I420R

[6] = test system: T6, SapI (Saccharopolyspora sp.); settings: linearizes pUC19 (double-strand cleavage); purified recombinant protein; protein details: New England Biolabs; only the site is given
T6 sequence: T1 sequence with Y34D, V82I, L168P, I230N, I420R

[7] = test system: T7, SapI variants 11/15 (K80E/E250K/K273R common substitutions) (Saccharopolyspora sp.); settings: most active nicking clones of the screen; other substitutions not listed; protein in a lysate after overexpression; only the site is given
T7 sequence: T1 sequence with Y34D, K80E, V82I, L168P, I230N, E250K, K273R, I420R

TGCGTATTGGGCGCTCTTCCGCTTCCTCG (double strand) [pUC19 SapI site]
activity on this sequence [1]: 2 units/µL
activity on this sequence (units/g wet cells) [2]: 10000
activity on this sequence [3]: active
activity on this sequence [4]: active
activity on this sequence [5]: active
activity on this sequence [6]: active
activity on this sequence [7]: active
